Results are given in words; binding and its absence hold for the method and conditions named.

Protein sequences, listed by entry. Tags and fused reporters are not part of them. Residues count along the entry.
UniProt Q07866, residues 185-501: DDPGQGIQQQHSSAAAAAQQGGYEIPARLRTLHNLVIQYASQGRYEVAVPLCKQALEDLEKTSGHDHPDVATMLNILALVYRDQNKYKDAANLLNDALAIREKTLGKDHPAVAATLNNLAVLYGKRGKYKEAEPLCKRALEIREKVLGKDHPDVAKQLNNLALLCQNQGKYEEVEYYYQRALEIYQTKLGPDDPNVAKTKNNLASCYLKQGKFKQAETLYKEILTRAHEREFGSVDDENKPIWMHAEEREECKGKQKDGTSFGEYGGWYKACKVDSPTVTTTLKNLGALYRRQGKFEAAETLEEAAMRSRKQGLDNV

In the experiment the target is GST-tagged KLC1[185-501] (human) (UniProt Q07866). Put plainly: pull-down.

B1: mouse JIP3[186-505] L439P (domain or fragment, UniProt Q9ESN9-5 186-505)
chain: QVGGSGQTESSLPGRSRKERPTSLNVFPLADGMVRAQMGGKLVPAGDHWHLSDLGQLQSSSSYQCPNDEMSESGQSSAAATPSTTGTKSNTPTSSVPSAAVTPLNESLQPLGDYVSVTKNNKQAREKRNSRNMEVQVTQEMRNVSIGMGSSDEWSDVQDIIDSTPELDVCPETRLERTGSSPTQGIVNKAFGINTDSLYHELSTAGSEVIGDVDEGADLLGEFSGMGKEVGNLLLENSQLLETKNALNVVKNDPIAKVDQLSGEQEVLKGELEAAKQAKVKLENRIKELEEELKRVKSEAVTARREPREEVEDDKIPMAQ
Regarding B1, the binding result is given as “no binding”.
